Measurements: publication PMC7090148 (2020)
No constants are given. Whether binding was seen depends on the method and setting. Binding seen in cells or lysates may run through a third protein. A result given as binding can be weak or reduced; the word gives no strength. For part of these data: Tags and fused reporters may be left off the sequences shown.

Assays:
[1] = target: T1, Mouse OFD1 S437R (mouse) (UniProt Q80Z25); assay: co-IP; OFD1 mutants co-expressed with TRAPPC8 or TRAPPC12; IP efficiency as ratio of immunoprecipitated TRAPPC8/OFD1 or TRAPPC12/OFD1; cell line and IP antibody not stated for this panel
T1 sequence: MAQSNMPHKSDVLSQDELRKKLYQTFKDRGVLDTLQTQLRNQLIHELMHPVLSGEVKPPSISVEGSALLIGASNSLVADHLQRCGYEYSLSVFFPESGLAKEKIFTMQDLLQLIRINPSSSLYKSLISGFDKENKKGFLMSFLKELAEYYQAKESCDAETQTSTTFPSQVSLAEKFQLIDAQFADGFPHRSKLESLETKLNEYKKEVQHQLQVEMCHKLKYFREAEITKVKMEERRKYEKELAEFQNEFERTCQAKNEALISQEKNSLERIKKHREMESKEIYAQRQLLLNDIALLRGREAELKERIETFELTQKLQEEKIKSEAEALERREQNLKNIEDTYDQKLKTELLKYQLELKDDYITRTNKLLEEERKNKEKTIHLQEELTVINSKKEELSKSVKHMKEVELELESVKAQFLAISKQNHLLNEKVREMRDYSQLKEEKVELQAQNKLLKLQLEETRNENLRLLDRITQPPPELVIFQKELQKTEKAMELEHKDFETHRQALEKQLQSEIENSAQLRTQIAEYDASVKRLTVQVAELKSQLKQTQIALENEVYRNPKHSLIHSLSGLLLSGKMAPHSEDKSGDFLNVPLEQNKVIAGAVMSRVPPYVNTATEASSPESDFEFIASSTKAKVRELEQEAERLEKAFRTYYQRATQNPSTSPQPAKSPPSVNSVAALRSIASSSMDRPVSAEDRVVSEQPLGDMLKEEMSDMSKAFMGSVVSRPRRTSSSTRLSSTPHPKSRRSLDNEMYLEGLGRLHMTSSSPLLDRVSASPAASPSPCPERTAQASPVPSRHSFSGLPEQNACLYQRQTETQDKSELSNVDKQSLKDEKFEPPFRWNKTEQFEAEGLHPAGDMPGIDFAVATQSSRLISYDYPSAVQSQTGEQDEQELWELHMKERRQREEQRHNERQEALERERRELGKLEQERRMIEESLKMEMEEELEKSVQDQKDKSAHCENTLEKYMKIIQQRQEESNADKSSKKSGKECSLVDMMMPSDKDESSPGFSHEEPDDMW

[2] = target: T2, Myc-tagged OFD1 (oral-facial-digital syndrome 1), full length (human) (UniProt O75665); assay: co-IP; Myc-OFD1 (full length or truncations) co-transfected with NTAP-TRAPPC8 or NTAP-TRAPPC12 in HEK293T cells (wild type; also TRAPPC12-/- for TRAPPC8 and TRAPPC8-/- for TRAPPC12); lysate in RIPA buffer (20 mM Tris pH 8.0, 100 mM NaCl, 0.1% NP-40); IP with anti-Myc antibody and protein A-sepharose, 4°C overnight; immunoblot
T2 sequence: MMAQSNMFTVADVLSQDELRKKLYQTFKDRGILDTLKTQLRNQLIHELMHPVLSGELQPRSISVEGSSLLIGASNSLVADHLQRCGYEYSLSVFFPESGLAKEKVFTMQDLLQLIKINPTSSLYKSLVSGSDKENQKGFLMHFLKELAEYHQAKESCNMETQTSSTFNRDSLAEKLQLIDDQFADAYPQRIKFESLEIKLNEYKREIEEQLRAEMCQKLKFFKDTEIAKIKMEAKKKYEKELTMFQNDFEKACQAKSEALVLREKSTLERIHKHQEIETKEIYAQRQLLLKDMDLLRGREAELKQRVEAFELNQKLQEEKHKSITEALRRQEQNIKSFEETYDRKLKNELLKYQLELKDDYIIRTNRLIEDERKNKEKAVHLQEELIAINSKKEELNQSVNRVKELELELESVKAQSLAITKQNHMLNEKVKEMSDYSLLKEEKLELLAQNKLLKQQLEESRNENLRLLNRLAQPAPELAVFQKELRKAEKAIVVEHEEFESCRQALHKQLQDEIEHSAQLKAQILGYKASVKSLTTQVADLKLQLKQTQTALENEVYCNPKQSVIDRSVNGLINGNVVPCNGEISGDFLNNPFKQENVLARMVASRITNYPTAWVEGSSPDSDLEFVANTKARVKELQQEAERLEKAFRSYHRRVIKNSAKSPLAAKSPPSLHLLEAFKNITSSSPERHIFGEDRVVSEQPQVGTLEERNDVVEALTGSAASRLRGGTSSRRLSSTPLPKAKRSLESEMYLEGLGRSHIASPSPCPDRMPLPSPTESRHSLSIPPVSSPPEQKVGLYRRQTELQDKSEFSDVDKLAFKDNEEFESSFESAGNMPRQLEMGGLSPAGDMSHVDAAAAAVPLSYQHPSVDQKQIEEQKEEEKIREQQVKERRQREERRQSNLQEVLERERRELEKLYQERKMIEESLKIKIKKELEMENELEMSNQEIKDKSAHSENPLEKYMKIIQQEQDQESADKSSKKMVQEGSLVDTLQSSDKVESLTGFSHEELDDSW

[3] = target: T3, Myc-tagged OFD1 N-terminal region (residues 1-192), including the LisH motif (not stated (human or mouse cDNA cloned)) (UniProt O75665); assay: as above
T3 sequence: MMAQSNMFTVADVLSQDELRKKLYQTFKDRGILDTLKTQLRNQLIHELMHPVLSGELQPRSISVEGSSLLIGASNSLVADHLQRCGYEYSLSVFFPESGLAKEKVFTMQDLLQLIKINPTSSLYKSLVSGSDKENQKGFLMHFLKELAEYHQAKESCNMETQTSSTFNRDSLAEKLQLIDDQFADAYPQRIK

Measured: binding

NTAP-tagged TRAPPC8 (mouse)
binds: all assays above
